Measured values taken from patent publication US9572802B2 (Theravance Respiratory Company, LLC, priority 2009, dated 2017).
Counter-ions that a name gives are not always drawn. For at least one compound, name, drawing or mass did not settle the structure.

System: methacholine (MCh)-induced bronchoconstriction
Assay: Rat Einthoven assay: bronchoprotection against methacholine (MCh)-induced bronchoconstriction
Assay type: in vivo
Settings: 100 μg by inhalation, bronchoprotective effect present
Method: This assay measures the ability of a test compound to provide bronchoprotection against methacholine (MCh)-induced bronchoconstriction in a rat. Male Sprague-Dawley rats (Harlan, Indianapolis, Ind.), weighing between 200 g and 350 g, were used for all studies. Test compound or vehicle (sterile deionized water) were dosed by inhalation (1H) over a 10 min period in a pie shaped inhalation chamber (R+S Molds, San Carlos, Calif.) using 5 mL of dosing solution. […] Rats were dosed with 100 μg of test compound unless otherwise indicated. At predetermined time points, rats were anesthetized with all intraperitoneal (IP) injection of 120 mg/kg inactin (thiobutabarbital). A supplemental dose (40 mg/kg, IP) was administered if the animal responded to physical stimuli (e.g. toe pinch). The surgical site was shaved and a 1-2 cm midline incision of the ventral aspect of the neck was made. The jugular vein was isolated and cannulated with a saline-filled polyethylene catheter (PE-50) to allow IV infusion of MCh. Trachea was dissected free and cannulated with a 14G needle (#NE-014, Small Parts, Miami Lakes, Fla.). After placement of the tracheal cannula, each rat was ventilated using a respirator (Model 683, Harvard Apparatus, Inc., Mass.) set at a stroke volume of 1 mL/100 g body weight (but not exceeding 2.5 mL volume) and a rate of 90 strokes per minute. A T-connector was placed along the respirator expiratory tubing to allow for measurement of changes in ventilation pressure (VP) using a Biopac transducer that was connected to a Biopac […]) pre-amplifier. Body temperature was maintained at 37° C. using a heating pad. Changes in VP were recorded using the Acknowledge Data Collection Software (Santa Barbara, Calif.). Baseline values were collected for at least 2.5 min. Rats were then challenged with non-cumulative intravenous (IV) infusions of 40 and 80 μg/kg MCh. MCh was infused intravenously for 2.5 minutes from a syringe pump (sp210iw, World Precision Instruments, Inc., Sarasota, Fla.) at a rate of 2 mL/kg/min, with a 2 minute interval between the two doses of MCh. Changes in ventilation pressure (cm H2O) in treated animals are expressed as % inhibition of MCh response relative to control animals. Other bronchoconstrictors, such as histamine and acetylcholine, can be used in place of MCh in this assay. Additonally, guinea pigs can be used instead of rats. […] Inhibition greater than or equal to 30 percent at 24 h is indicative of a long duration of action.

Row | Structure (SMILES) | Broncho. at 24 h
1 | C[C@H](Cc1ccc(NC(=O)c2cccc(N(C)C(=O)CCN3CCC(OC(=O)Nc4ccccc4-c4ccccc4)CC3)c2)cc1)NC[C@H](O)c1ccc(O)c2[nH]c(=O)ccc12 [Compound I-42, Biphenyl-2-ylcarbamic acid 1-(2-{[3-(4-{(R)-2-[(R)-2-hydroxy-2-(8-hydroxy-2-oxo-1,2-dihydroquinolin-5-yl)-ethylamino]propyl}phenylcarbamoyl)phenyl]methylcarbamoyl}ethyl)piperidin-4-yl ester ditrifluoroacetic acid salt] | No
2 | Cc1cc(CNC[C@H](O)c2ccc(O)c3[nH]c(=O)ccc23)ccc1NC(=O)c1ccc(C)c(N(C)C(=O)CCN2CCC(OC(=O)Nc3ccccc3-c3ccccc3)CC2)c1 [Compound I-28, Biphenyl-2-ylcarbamic acid 1-(2-{[5-(4-{[(R)-2-hydroxy-2-(8-hydroxy-2-oxo-1,2-dihydroquinolin-5-yl)-ethylamino]methyl}-2-methylphenylcarbamoyl)-2-methylphenyl]methylcarbamoyl}ethyl)piperidin-4-yl ester ditrifluoroacetic acid salt] | No
3 | C[C@@H](Cc1cccc(CC(=O)NCc2ccc(N(C)C(=O)CCN3CCC(OC(=O)Nc4ccccc4-c4ccccc4)CC3)cc2)c1)NC[C@H](O)c1ccc(O)c2[nH]c(=O)ccc12 [Compound I-79, Biphenyl-2-ylcarbamic acid 1-{2-[(4-{[2-(3-{(S)-2-[(R)-2-hydroxy-2-(8-hydroxy-2-oxo-1,2-dihydroquinolin-5-yl)ethylamino]propyl}phenyl)acetylamino]methyl}phenyl)methylcarbamoyl]ethyl}piperidin-4-yl ester ditrifluoroacetic acid salt] | No
4 | C[C@@H](Cc1cccc(CCNC(=O)c2ccc(N(C)C(=O)CCN3CCC(OC(=O)Nc4ccccc4-c4ccccc4)CC3)cc2)c1)NC[C@H](O)c1ccc(O)c2[nH]c(=O)ccc12 [Compound I-56, Biphenyl-2-ylcarbamic acid 1-[2-({4-[2-(3-{(S)-2-[(R)-2-hydroxy-2-(8-hydroxy-2-oxo-1,2-dihydroquinolin-5-yl)-ethylamino]propyl}phenyl)ethylcarbamoyl]phenyl}methylcarbamoyl)ethyl]piperidin-4-yl ester ditrifluoroacetic acid salt] | No
5 | CN(C(=O)CCN1CCC(OC(=O)Nc2ccccc2-c2ccccc2)CC1)c1ccc(CC(=O)NCc2ccc(CCNC[C@H](O)c3ccc(O)c4[nH]c(=O)ccc34)cc2)cc1 [Compound I-64, Biphenyl-2-ylcarbamic acid 1-[2-({4-[(4-{2-[(R)-2-hydroxy-2-(8-hydroxy-2-oxo-1,2-dihydroquinolin-5-yl)-ethylamino]ethyl}benzylcarbamoyl)methyl]phenyl}methylcarbamoyl)ethyl]piperidin-4-yl ester ditrifluoroacetic acid salt] | No
6 | Cc1cc(NC(=O)c2cccc(N(C)C(=O)CCN3CCC(OC(=O)Nc4ccccc4-c4ccccc4)CC3)c2)c(C)cc1CNC[C@H](O)c1ccc(O)c2[nH]c(=O)ccc12 [Compound I-30, Biphenyl-2-ylcarbamic acid 1-(2-{[3-(4-{[(R)-2-hydroxy-2-(8-hydroxy-2-oxo-1,2-dihydroquinolin-5-yl)-ethylamino]methyl}-2,5-dimethylphenylcarbamoyl)phenyl]methylcarbamoyl}ethyl)piperidin-4-yl ester ditrifluoroacetic acid salt] | No
